From the supplement of paper PMC10849652
Some of the results follow.

Chains of the proteins cited; added tags and fusions are not shown. Lines headed by an entry give the natural chain unless they say otherwise; changes in a name come on top.
UniProt Q8N4S0: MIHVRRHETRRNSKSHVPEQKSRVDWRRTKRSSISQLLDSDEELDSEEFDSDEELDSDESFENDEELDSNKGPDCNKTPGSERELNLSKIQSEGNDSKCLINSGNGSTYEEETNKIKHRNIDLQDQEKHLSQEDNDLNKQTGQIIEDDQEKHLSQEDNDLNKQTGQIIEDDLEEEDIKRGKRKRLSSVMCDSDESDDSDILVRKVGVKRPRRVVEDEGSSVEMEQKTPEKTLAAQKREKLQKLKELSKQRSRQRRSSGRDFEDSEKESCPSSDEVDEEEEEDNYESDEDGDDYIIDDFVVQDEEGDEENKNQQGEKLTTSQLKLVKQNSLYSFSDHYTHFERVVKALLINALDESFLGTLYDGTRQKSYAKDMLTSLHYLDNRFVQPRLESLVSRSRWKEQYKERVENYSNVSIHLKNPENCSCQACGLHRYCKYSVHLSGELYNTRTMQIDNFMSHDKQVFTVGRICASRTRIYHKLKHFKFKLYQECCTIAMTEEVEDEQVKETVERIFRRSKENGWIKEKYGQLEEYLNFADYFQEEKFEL
UniProt Q6P4E1: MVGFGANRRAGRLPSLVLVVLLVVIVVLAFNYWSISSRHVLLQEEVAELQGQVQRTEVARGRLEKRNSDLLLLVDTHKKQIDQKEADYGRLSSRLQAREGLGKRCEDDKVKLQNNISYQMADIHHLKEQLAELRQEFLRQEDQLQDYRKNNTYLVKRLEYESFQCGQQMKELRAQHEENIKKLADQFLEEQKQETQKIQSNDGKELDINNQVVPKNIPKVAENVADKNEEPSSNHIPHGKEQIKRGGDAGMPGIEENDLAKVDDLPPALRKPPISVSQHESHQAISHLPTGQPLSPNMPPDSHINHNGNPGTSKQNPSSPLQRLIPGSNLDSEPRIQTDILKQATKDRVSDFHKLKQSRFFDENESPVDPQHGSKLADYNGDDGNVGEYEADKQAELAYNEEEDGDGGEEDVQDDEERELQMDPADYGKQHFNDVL
UniProt Q14790: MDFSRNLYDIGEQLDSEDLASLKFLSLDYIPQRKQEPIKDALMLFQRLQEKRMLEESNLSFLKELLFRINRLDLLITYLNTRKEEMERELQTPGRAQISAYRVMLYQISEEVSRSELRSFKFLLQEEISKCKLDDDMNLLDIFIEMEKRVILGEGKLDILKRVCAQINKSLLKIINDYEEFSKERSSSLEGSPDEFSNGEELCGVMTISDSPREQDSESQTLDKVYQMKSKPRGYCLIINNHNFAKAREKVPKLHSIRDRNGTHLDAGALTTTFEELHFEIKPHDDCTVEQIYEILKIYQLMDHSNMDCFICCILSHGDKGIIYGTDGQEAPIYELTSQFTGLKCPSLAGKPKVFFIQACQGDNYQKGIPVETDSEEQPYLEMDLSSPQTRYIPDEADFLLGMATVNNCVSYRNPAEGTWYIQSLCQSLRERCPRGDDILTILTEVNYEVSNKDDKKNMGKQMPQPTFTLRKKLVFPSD
UniProt P14635, whole entry, looked up: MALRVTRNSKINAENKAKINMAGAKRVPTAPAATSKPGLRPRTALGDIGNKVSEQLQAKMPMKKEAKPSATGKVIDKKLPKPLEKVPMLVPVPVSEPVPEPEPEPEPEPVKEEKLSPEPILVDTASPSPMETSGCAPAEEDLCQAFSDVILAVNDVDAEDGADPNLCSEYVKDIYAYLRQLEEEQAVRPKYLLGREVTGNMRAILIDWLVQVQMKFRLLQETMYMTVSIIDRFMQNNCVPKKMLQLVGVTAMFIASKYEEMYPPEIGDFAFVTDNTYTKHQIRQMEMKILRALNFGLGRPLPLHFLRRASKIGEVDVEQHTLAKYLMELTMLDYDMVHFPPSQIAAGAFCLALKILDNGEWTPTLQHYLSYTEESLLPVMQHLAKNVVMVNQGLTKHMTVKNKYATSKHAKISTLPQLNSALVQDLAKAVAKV
UniProt Q99832: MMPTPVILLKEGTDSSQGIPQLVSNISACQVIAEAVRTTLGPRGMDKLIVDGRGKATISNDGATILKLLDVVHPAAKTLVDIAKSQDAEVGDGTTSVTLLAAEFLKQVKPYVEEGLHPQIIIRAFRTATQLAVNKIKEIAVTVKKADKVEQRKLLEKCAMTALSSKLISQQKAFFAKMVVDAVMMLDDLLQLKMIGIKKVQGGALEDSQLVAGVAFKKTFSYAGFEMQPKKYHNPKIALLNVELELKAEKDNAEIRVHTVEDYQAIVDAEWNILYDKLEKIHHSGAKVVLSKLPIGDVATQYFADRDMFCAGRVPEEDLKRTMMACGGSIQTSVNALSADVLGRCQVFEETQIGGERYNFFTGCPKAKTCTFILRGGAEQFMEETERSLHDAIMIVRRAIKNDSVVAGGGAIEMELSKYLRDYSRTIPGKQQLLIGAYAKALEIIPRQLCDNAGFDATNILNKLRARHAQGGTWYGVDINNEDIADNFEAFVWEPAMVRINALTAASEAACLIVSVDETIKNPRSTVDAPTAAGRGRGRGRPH
UniProt P08174: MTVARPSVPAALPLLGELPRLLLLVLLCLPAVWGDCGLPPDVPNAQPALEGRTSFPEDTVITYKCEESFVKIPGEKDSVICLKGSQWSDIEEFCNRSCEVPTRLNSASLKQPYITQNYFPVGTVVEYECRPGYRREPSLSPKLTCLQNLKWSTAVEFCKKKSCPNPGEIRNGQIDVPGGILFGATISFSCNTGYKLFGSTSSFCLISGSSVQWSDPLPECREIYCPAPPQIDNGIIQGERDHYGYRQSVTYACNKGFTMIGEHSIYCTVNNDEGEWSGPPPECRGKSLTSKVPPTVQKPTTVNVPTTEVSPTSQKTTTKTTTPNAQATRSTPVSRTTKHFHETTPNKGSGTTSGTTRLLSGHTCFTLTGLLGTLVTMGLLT
UniProt Q8IVM0: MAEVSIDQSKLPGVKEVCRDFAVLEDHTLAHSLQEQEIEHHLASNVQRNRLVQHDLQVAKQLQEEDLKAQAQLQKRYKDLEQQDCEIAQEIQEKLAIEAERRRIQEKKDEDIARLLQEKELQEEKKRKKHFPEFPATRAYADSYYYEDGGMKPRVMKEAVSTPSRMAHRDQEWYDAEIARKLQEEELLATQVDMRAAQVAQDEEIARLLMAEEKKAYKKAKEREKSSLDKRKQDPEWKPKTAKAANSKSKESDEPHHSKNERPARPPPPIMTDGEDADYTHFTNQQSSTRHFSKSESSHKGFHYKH
UniProt P34810: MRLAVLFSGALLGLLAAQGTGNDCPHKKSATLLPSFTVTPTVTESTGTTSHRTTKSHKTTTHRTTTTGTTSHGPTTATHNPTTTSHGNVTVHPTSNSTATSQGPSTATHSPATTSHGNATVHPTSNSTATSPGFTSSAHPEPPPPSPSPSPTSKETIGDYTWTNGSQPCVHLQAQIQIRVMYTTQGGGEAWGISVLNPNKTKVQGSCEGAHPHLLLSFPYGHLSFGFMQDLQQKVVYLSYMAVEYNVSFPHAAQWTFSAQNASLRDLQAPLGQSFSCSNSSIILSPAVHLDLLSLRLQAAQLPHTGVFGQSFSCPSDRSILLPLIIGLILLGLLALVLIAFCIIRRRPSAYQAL
UniProt Q07108: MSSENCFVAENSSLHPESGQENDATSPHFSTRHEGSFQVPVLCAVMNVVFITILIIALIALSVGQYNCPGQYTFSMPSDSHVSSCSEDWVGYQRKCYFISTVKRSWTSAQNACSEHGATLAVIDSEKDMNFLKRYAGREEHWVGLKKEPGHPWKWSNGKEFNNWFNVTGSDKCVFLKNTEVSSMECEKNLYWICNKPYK
UniProt Q9UKL3: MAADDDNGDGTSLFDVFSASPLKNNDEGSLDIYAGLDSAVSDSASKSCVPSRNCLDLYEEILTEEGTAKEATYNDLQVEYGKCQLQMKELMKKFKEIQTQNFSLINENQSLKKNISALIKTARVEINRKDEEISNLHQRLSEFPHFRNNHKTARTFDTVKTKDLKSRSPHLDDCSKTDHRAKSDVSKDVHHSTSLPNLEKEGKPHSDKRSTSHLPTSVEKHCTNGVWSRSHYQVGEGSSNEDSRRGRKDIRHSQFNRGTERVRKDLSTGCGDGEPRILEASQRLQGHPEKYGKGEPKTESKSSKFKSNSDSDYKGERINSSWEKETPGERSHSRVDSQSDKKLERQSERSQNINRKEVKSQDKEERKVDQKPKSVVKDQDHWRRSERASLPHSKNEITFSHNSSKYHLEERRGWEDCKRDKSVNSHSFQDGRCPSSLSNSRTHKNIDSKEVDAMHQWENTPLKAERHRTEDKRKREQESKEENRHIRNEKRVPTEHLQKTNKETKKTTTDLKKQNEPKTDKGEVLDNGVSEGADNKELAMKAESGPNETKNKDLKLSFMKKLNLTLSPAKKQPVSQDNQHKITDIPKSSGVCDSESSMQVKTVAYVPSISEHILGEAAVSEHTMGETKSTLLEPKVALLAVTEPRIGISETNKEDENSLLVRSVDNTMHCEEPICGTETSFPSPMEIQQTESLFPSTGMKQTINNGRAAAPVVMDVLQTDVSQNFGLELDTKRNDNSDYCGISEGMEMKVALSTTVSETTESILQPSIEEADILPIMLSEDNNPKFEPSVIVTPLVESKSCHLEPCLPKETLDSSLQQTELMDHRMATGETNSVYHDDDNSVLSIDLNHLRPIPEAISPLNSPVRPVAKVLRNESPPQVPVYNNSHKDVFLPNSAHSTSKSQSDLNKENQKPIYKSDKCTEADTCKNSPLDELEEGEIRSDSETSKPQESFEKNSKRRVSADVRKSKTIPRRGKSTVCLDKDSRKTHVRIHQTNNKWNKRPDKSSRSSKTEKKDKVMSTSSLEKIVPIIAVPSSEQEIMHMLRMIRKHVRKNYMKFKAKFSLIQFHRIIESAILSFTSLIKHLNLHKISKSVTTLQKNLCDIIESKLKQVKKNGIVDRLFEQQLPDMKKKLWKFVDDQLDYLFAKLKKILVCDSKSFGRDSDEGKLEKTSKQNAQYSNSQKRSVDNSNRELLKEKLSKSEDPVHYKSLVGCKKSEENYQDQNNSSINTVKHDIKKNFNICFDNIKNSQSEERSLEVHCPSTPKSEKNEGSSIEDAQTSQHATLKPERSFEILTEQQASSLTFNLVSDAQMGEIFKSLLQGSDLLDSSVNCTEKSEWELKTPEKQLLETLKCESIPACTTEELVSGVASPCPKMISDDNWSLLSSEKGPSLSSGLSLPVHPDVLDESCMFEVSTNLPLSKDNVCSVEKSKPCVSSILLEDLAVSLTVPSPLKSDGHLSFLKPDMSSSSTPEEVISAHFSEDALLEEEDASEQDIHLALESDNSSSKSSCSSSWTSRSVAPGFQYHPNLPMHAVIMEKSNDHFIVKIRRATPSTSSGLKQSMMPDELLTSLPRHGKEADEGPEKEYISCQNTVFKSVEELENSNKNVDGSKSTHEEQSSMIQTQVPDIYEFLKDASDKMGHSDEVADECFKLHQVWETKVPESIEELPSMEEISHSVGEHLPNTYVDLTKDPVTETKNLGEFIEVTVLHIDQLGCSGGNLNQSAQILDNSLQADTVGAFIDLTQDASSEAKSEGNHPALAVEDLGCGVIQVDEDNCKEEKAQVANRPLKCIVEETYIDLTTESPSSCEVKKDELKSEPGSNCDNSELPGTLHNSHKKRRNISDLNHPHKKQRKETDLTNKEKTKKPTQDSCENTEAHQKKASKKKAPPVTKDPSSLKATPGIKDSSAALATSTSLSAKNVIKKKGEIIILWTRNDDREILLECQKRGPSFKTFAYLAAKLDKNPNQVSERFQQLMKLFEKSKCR
UniProt P24864, whole entry, looked up: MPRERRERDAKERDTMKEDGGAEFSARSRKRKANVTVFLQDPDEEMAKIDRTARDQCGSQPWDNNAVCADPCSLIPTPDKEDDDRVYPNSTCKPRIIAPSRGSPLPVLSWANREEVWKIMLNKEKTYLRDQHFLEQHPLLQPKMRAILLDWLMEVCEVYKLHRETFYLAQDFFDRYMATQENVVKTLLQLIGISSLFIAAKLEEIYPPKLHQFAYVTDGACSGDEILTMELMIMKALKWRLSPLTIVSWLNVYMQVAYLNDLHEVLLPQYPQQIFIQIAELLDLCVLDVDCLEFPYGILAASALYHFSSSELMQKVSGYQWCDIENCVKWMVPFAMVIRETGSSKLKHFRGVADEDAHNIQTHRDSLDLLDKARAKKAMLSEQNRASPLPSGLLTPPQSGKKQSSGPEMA

Key:
Experiment in all cases: log2 fold change, soluble protein after heating vs DMSO (PISA); higher = thermal stabilisation; K562 lysate, 10 uM; active = over 0.2 and 3.5 SD of the protein, either way, in both replicates (recomputed)
[1] = compound: NCC(=O)Nc1ccc(-n2nc(C(F)(F)F)cc2-c2ccc3c(ccc4ccccc43)c2)cc1
Summary of the method: (§1)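 Log-two fold change in thermal stability relative to solvent controls is reported from duplicates. For each sample, crude K562 extract from dounce-homogenised pellets in PBS pH 7.4 with 1 mM MgCl2, at 1 mg/mL protein, was treated with 10 μM compound for 30 min. Aliquots heated for 3 min across 48°C-58°C were pooled, brought to 0.5% NP-40 at 4°C and cleared at 21,000xg for 90 min. The supernatant was quantified by TMTpro 16plex LC-MS/MS with channel sums equalised.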

[2] = compound: O=C(CCCCCCC(=O)Nc1ccccc1)NO [vorinostat]
Summary of the method: as §1

[3] = compound: O=C(O)c1ccc2c(c1)nc(Nc1cccc(Cl)c1)c1ccncc12 [silmitasertib]
Summary of the method: as §1

[4] = compound: O=C1NC(=O)C(c2cnc3ccccn23)=C1c1cn2c3c(cc(F)cc13)CN(C(=O)N1CCCCC1)CC2
Summary of the method: as §1

[5] = compound: c1cn2cc(-c3ccc4cn[nH]c4c3)nc(Nc3ccc(N4CCOCC4)cc3)c2n1 [entospletinib]
Summary of the method: as §1

Measured: log2 fold change

CCDC82 (UniProt Q8N4S0)
inactive: [1] -0.005 | [2] 0.067 | [3] 0.068 | [4] -0.022 | [5] 0.02

CASC4 (UniProt Q6P4E1)
inactive: [1] -0.034 | [2] 0.02 | [3] 0.019 | [4] 0.025 | [5] -0.029

CASP8 isoform 9 (UniProt Q14790)
inactive: [1] -0.014 | [2] -0.061 | [3] 0.038 | [4] 0.036 | [5] -0.021

CBX4 (UniProt O00257)
inactive: [1] -0.048 | [2] 0.134 | [3] -0.032 | [4] 0.046 | [5] 0.099

CCNB1 (UniProt P14635)
inactive: [1] 0.05 | [2] -0.008 | [3] -0.013 | [4] -0.02 | [5] -0.009

CCT7 (UniProt Q99832)
inactive: [1] 0.015 | [2] 0.031 | [3] 0.022 | [4] 0.023 | [5] 0.062

CC2D1B isoform 2 (UniProt Q5T0F9)
inactive: [1] 0 | [2] -0.023 | [3] -0.004 | [4] -0.004 | [5] -0.035

CD55 isoform 7 (UniProt P08174)
inactive: [1] 0.002 | [2] 0.154 | [3] -0.04 | [4] 0.003 | [5] -0.002

CD276 (UniProt Q5ZPR3)
inactive: [2] 0.218 | [3] -0.039

Quoted at random: 2 records from the list.
CCNB1 (UniProt P14635)
inactive: [1] 0.05 | [2] -0.008 | [3] -0.013 | [4] -0.02 | [5] -0.009

CD55 isoform 7 (UniProt P08174)
inactive: [1] 0.002 | [2] 0.154 | [3] -0.04 | [4] 0.003 | [5] -0.002

Next part

CCDC50 (UniProt Q8IVM0)
inactive: [2] -0.01 | [3] -0.029 | [4] 0.076 | [5] 0.048

CD68 (UniProt P34810)
inactive: [2] 0.169 | [3] -0.258 | [4] 0.219 | [5] 0.071

CD69 (UniProt Q07108)
inactive: [4] -0.026

CASP8AP2 (UniProt Q9UKL3)
inactive: [4] 0.054 | [5] 0.119

CCNE1 (UniProt P24864)
inactive: [1] 0.084 | [4] 0.035 | [5] -0.149
